Laboratory results as given in PubChem BioAssay AID652104 (National Center for Advancing Translational Sciences (NCATS), 2013).
Shown are results outside the selection of hits, which stands elsewhere. Records with an inconclusive call do not appear. Calls of active or inactive are those of the source. Calls follow the shape of the dose curve; as a rule, active = well fitted activation curve with a large enough effect; inconclusive = small, poorly fitted or top-dose-only effect, or another doubt; inactive = no such curve, though single readings can be large or run the other way.

Test: qHTS of TDP-43 Inhibitors; also: % of control where 0% means no effect; nearly all actives have a fitted effect of over 50% in size
Settings: TDP-43 expressing yeast growth rescue, BacTiter-Glo, 24 h; at 46.1 µM (top of the series)
Text: The goal of this project is to identify new chemical probes capable of reversing the toxicity associated with TDP-43 which is associated with frontotemporal lobar degeneration and amyotrophic lateral sclerosis. These compounds will provide a complementary approach to deciphering the tangled mechanisms of toxicity and protection that we have uncovered through genome-wide genetic screens and are beginning to uncover in a large-scale proteomics analysis with mass spectroscopy.
To this end, a miniaturized assay was developed to be screened against the Molecular Libraries Small Molecule Repository (MLSMR) to discover TDP-43 inhibitors. Please note that in the set-up this yeast-based assay compounds that inhibit as TDP-43, have a read-out as activators.
NIH Chemical Genomics Center [NCGC]
NIH Molecular Libraries Probe Centers Network [MLPCN]
Assay Submitter (PI): Susan Lindquist, Whitehead Institute/MIT
Dispense 2.5 microL yeast galactose medium per 1536-well plate, pin compound, dispense 2.5 microL TDP-43 expressing yeast in galactose medium at OD600=0.02 (pregrown in raffinose medium to mid-log phase) per well, incubate for 24 hr at 30 deg C, and cell growth will be measured using 5 microL of Bactiter/Glo reagent to entire plate and read using Luminescence Protocol in ViewLux.

Structure (SMILES) | growth rescue (activation)
CCCCCCCCc1ccc(O)cc1 | inactive: -90.8%
